Source: PubChem BioAssay AID2685 (National Center for Advancing Translational Sciences (NCATS), 2010)
The list shows a part of the results. These are further read-outs of the screen, such as a control signal, another cell line or another target. No call is given for them. Compounds called inactive in the main read-out are mostly missing here. Words in brackets tell the shape of the fitted curve; partial curves, single points and poor fits give uncertain potencies.

Test: qHTS Assay for Lipid Storage Modulators in Drosophila S3 Cells;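 on cell number change: cells counted by Cell Tracker Red CMTPX staining in the red channel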
Settings: BODIPY lipid droplet fluorescence, 18-24 h; for cell number change: measured here: cell count max response, cells fed with added oleic acid
In short: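 Drosophila S3 cells got compounds at several concentrations plus oleic acid (400 uM solution). Laser-scanning cytometry with 488 nm excitation read lipid droplets at 500-530 nm and cells at 575-640 nm. Percent activity was relative to 20 uM Triacsin C.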

[1] = measured here: lipid fluorescence (Fed channel) AC50, cells fed with added oleic acid
[2] = measured here: cell number channel AC50, cells fed with added oleic acid

SMILES	AC50 [1]	cell number change [%]	AC50 [2]
CCCn1cnc2sc(C(N)=O)c(C)c2c1=O	1.46 µM [rising, partial curve]	–	–
[O-][n+]1onc2c1CCC(=N/O)/C2=N\Nc1ccccc1	–	-65.7	18.4 µM [falling, single point]
CCC1=C(c2cc(OC)c(OC)c(OC)c2)C2(CCCC2)C(=O)O1	23.1 µM [rising, single point]	12	–
CCc1ccc(-c2nc(NC(=S)NC(=O)c3cccs3)sc2C)cc1	6.51 µM [rising, single point]	–	–
S=C(NCCSCc1ccccc1Cl)Nc1ccccc1	–	125	–
Cn1c(=N)n(CC(O)c2cccs2)c2ccccc21 (stereo not given)	29.1 µM [rising, single point]	13.5	–
CCOc1ccc(C2CC(c3ccc(F)cc3)n3ncnc3N2)cc1 (stereo not given)	2.31 µM [rising, partial curve]	30.2	1.46 µM [rising, full curve, poor fit]
O=C(O)COc1ccccc1/C=N/NC(=O)CNC(=O)c1ccco1	1.3 µM [falling, single point]	–	–
COc1ccc(CC(=O)N2CCN(c3ccccc3F)CC2)cc1OC	0.92 µM [falling, single point]	5.96	–
CN1CCN(c2ccc(CNS(=O)(=O)c3ccc(F)cc3Cl)cc2)CC1	29.1 µM [rising, single point]	25.8	–
COc1ccc(N(CC(=O)NCCSc2ccccn2)S(=O)(=O)c2ccc(C)cc2)cc1OC	2.59 µM [falling, partial curve]	10.8	–
Cc1cccc(N2C(=O)/C(=C/c3cccnc3)SC2=S)c1	–	-37.9	2.31 µM [falling, full curve, poor fit]
CCC(OC(=O)C(NC(=O)c1ccccc1)c1ccccc1)C(=O)Nc1cc(C)on1 (stereo not given)	–	1.41	–
CCN1CCN(CC(=O)N2CCCC(C(=O)c3ccc(Oc4ccccc4)cc3)C2)CC1 (stereo not given)	29.1 µM [falling, single point]	-18.4	–
CC(C)(C)c1cc(NC(=O)c2cccc([N+](=O)[O-])c2)no1	1.16 µM [falling, single point]	-24.9	–
O=C(/C=C/c1ccc2ccccc2n1)c1cc(Br)ccc1O	18.4 µM [falling, single point]	17.6	–
CCN1CCN(c2cc(C)c3cc(NC(=O)c4ccc(Br)o4)ccc3n2)CC1	–	-47.5	–
CC1(c2cccc(Br)c2)NC(=O)N(CC(=O)NC2CCCCC2)C1=O (stereo not given)	0.0651 µM [rising, partial curve, poor fit]	-8.52	–
COc1cccc(NC(=O)CSc2nnc(Cc3cccs3)n2-c2ccc(C)cc2)c1	6.51 µM [rising, single point]	76.5	5.17 µM [rising, partial curve, poor fit]
COc1cc(/C=N\NC(=O)CNC(=O)C2COc3ccccc3O2)ccc1O (stereo not given)	0.092 µM [falling, full curve, poor fit]	-38.1	0.116 µM [falling, full curve, poor fit]
CCOC(=O)c1c(NC(=O)COC(=O)c2ccccn2)sc(C)c1C	6.51 µM [rising, single point]	7.84	–

SMILES	AC50 [1]	cell number change [%]	AC50 [2]
Cc1ccc(S(=O)(=O)N(CCC(=O)N2CCOCC2)c2ccccc2)cc1	29.1 µM [rising, single point]	25	–
CCOC(=O)C1=C(C)Nc2nc(=S)[nH]n2C1c1ccc(Cl)cc1 (stereo not given)	29.1 µM [rising, partial curve]	126	20.6 µM [rising, single point]
CNC(=O)C(NC(=O)Nc1ccc(C)cc1)C(C)(C)C (stereo not given)	–	6.05	3.66 µM [falling, single point]
O=C(O)CS(=O)(=O)c1ccc(C(F)(F)F)cn1	9.2 µM [falling, partial curve, poor fit]	-24.8	–
COc1ccc(C2N(c3ccc(F)cc3)C(=O)C3CCCN32)cc1 (stereo not given)	3.26 µM [rising, single point]	15.9	–
COc1ccc(CNC(=O)C(=O)NCC2OCCN2S(=O)(=O)c2ccc(OC)c(OC)c2)cc1 (stereo not given)	–	1.08	–
Cc1ccc(NC(=O)CCNS(=O)(=O)c2ccc3c(c2)oc(=O)n3C)c(C)c1	0.82 µM [rising, partial curve]	31.6	0.92 µM [rising, full curve, poor fit]
O=C(NC(=S)Nc1ccc(N2CCOCC2)cc1)c1ccc2c(c1)OCCO2	2.91 µM [rising, partial curve, poor fit]	-16	–
O=C(CSc1nnc(-c2ccc(OC(F)F)cc2)o1)NCc1cccs1	29.1 µM [rising, partial curve]	57.3	29.1 µM [rising, single point]
CC1CCCCN1S(=O)(=O)c1ccc(C(=O)Nc2sccc2C(N)=O)cc1 (stereo not given)	29.1 µM [falling, single point]	6.86	–
Cc1ccc(C(=O)NCc2ccccc2F)cc1S(=O)(=O)N1CCCC1	–	-1.32	–
COC(=O)COc1ccc(C(=O)OC)cc1	6.51 µM [falling, single point]	-5.71	6.51 µM [falling, single point]
CC(=O)Nc1ccc(S(=O)(=O)N(C)CC(=O)OC(C)C(=O)NC2CCCCC2)cc1 (stereo not given)	–	7.5	–
OCCCCCNc1ncnc2ccccc12	20.6 µM [falling, single point]	-23.7	–
COc1ccccc1C(=O)Nc1ccnn1C1CCN(C(=O)C(C)(C)C)CC1	–	-5.5	–
CCCc1nnc(NC(=O)CCC(=O)NC2CCCc3ccccc32)s1 (stereo not given)	6.51 µM [rising, full curve, poor fit]	28.8	–
CSc1ccccc1NC(=O)CN(C)CC(=O)Nc1ccc(N2CCOCC2)cc1	2.91 µM [rising, full curve, poor fit]	–	6.51 µM [rising, single point]
Cc1ncc(CN2CCCC(C(=O)Nc3ccc(-n4ccnc4C)cc3)C2)cn1 (stereo not given)	–	1.15	–
O=C(Nc1ccccc1)C1CCN(C(=O)c2ccco2)CC1	0.116 µM [falling, single point]	14.1	–
O=C(O)C(NS(=O)(=O)c1ccccc1)C(O)c1ccccc1 (stereo not given)	–	8.8	–
O=C(/C(=C/c1ccccc1)n1cncn1)c1ccc(Cl)cc1Cl	25.9 µM [falling, single point]	-7.8	–

SMILES	AC50 [1]	cell number change [%]	AC50 [2]
CC(C)(C)c1ccc(C(=O)N2CCN(c3ncccn3)CC2)cc1	6.51 µM [rising, single point]	4.26	–
Cc1cc(C(=O)CCC(=O)Nc2ncccc2C)c(C)s1	20.6 µM [falling, single point]	-53	29.1 µM [falling, single point]
CCOc1ccc(NC(=O)CC2C(=O)N(c3ccc(OC)cc3)C(=O)N2Cc2ccc(OC)cc2)cc1 (stereo not given)	6.51 µM [rising, single point]	22	0.58 µM [rising, single point]
CCCC(=O)NC(=S)Nc1cccc(Cl)c1N1CCCCC1	29.1 µM [falling, single point]	-125	20.6 µM [falling, single point]
COc1ccccc1C/C(N)=N/OC(=O)COc1cccc2ccccc12	6.51 µM [falling, full curve, poor fit]	-16.4	–
O=c1[nH]c2cc(S(=O)(=O)CCO)ccc2o1	4.61 µM [falling, single point]	-3.93	–
CCCCCCCn1c(C)nnc1-c1cnn(C)c1N	16.4 µM [rising, single point]	44.3	16.4 µM [rising, single point]
Cc1cc(C)cc(C(=O)Nc2ccc3[nH]c(=O)[nH]c3c2)c1	6.51 µM [falling, single point]	-0.0963	6.51 µM [falling, single point]
CN(C)CCCNC(=O)COc1ccc(Br)cc1Cl	20.6 µM [rising, single point]	-3.45	–
CCC[N+](CC#Cc1ccccc1)(CCC)CC(=O)OC	4.11 µM [rising, partial curve]	-11.7	1.16 µM [rising, full curve]
Cc1nc2cc(O)ccc2n1C	–	18	–
COc1ccc(NC(=O)c2cccn(CC=C(C)C)c2=O)cc1	–	99.7	0.58 µM [falling, partial curve, poor fit]
CCCCC(O)CN1CCC(c2ccccc2)CC1 (stereo not given)	6.51 µM [falling, single point]	-69.7	5.8 µM [falling, full curve]
Cn1c(SC2=CS(=O)(=O)c3ccccc32)nc2ccccc21	29.1 µM [falling, single point]	–	–
Cn1c(C(=O)NCC2CCCO2)cc2c(=O)n(C)c3ccccc3c21 (stereo not given)	1.3 µM [rising, full curve]	–	0.517 µM [rising, full curve]
COc1cc(/C=N/Nc2nc(Nc3ccccc3)nc(N3CCCCC3)n2)ccc1OCC(=O)O	0.58 µM [falling, single point]	–	0.82 µM [falling, single point]
C=CCSc1nnc(C)c(/C=C/Nc2ccc(Cl)cc2)n1	–	12.1	–
Cc1cc(C)cc(NC(=O)CSc2nnc(NC(=O)C3CC3)s2)c1	–	21.8	–
CCCNS(=O)(=O)c1cc(CN2C(=O)c3cccnc3C2=O)ccc1OC	6.51 µM [rising, single point]	-16.9	–

Look-ups from the list.
cell number change [%], Cc1cc(C)cc(C(=O)Nc2ccc3[nH]c(=O)[nH]c3c2)c1 is entered as -0.0963
AC50 [1], CN(C)CCCNC(=O)COc1ccc(Br)cc1Cl is entered as 20.6 µM [rising, single point]
